Some of the results follow.

The chains behind the UniProt entries cited, without tags or fusion partners. Where a name states a change or a piece, a line headed by the entry shows the natural chain unless it says otherwise.
UniProt Q9HC16: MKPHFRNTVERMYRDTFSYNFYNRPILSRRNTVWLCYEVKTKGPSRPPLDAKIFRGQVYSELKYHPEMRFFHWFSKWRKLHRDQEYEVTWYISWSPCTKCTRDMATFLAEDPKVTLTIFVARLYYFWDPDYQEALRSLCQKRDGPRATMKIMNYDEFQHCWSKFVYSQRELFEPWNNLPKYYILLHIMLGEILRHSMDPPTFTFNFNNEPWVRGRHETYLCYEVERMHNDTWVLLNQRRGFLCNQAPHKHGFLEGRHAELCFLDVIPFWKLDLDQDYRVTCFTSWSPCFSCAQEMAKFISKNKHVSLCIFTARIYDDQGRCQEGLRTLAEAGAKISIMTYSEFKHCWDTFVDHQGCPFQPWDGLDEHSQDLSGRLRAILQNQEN
UniProt O43299: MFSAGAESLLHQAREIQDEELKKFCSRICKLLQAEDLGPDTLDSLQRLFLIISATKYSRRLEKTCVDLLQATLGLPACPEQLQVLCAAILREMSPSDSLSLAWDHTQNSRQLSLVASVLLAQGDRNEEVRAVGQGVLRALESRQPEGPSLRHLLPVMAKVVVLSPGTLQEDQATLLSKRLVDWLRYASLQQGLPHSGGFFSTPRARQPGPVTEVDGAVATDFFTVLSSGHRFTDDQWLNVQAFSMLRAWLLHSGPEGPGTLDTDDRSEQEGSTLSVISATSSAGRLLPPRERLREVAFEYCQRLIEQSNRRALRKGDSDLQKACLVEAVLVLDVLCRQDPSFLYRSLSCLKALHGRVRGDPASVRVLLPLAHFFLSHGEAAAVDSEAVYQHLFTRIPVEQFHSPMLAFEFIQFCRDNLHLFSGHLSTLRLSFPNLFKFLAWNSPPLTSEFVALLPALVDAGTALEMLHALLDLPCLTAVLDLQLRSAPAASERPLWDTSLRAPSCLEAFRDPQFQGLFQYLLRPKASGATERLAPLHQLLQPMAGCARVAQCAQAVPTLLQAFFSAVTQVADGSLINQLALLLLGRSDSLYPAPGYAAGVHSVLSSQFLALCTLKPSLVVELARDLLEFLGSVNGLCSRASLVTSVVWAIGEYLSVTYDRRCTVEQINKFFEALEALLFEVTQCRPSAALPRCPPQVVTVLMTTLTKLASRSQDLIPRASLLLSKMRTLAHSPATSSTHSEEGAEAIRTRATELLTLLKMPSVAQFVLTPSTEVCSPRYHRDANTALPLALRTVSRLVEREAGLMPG
UniProt P15289: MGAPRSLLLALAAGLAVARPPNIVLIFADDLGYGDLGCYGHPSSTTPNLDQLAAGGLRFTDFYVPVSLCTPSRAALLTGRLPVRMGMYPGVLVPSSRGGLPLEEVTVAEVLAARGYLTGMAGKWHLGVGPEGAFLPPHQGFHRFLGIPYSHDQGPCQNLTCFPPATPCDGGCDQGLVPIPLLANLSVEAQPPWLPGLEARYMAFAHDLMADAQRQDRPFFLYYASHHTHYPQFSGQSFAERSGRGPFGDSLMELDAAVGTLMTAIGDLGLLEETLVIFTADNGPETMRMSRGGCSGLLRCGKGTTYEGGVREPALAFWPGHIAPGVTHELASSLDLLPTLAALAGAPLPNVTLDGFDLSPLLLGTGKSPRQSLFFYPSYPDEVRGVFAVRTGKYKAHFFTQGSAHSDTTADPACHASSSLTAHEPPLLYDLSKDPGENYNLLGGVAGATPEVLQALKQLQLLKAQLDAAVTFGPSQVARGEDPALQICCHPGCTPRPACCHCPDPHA
UniProt Q13017, whole entry, looked up: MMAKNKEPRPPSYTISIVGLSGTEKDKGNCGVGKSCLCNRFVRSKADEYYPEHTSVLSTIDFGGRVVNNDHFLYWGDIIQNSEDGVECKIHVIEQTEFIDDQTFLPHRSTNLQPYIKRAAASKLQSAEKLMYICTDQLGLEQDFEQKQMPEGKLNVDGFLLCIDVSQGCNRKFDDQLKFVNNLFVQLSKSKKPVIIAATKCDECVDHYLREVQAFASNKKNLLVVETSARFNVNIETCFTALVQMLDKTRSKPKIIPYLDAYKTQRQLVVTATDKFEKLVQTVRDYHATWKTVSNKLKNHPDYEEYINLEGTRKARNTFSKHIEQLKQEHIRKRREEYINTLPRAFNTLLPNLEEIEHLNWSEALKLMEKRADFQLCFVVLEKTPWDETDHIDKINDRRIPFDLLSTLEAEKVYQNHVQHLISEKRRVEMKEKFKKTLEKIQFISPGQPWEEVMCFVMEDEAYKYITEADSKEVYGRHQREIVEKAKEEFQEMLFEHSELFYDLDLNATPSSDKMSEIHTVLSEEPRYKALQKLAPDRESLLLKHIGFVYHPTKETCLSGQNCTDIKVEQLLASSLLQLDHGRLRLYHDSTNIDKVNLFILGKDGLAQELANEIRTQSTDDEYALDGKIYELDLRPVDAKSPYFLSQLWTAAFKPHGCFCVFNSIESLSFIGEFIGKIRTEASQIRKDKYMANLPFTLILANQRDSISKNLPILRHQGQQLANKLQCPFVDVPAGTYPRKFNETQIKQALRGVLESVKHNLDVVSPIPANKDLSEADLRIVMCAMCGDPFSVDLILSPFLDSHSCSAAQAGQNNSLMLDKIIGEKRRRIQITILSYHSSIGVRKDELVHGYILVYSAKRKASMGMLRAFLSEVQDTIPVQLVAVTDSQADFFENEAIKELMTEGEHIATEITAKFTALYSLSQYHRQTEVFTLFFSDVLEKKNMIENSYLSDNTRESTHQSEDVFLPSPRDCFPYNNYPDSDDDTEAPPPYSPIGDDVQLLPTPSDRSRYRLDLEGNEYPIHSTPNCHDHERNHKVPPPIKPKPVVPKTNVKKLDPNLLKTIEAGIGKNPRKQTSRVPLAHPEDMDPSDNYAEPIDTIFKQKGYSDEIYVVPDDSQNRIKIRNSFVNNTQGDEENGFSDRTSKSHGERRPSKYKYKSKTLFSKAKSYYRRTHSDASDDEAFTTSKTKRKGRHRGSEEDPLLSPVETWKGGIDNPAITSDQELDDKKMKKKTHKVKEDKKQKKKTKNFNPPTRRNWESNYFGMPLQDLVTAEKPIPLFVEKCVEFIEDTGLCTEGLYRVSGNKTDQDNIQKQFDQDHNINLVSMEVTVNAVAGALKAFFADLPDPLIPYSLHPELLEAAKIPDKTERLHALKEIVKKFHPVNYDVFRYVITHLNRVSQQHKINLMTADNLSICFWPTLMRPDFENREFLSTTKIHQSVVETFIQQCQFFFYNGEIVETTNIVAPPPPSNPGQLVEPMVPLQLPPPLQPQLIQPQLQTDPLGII
UniProt Q9UKG1: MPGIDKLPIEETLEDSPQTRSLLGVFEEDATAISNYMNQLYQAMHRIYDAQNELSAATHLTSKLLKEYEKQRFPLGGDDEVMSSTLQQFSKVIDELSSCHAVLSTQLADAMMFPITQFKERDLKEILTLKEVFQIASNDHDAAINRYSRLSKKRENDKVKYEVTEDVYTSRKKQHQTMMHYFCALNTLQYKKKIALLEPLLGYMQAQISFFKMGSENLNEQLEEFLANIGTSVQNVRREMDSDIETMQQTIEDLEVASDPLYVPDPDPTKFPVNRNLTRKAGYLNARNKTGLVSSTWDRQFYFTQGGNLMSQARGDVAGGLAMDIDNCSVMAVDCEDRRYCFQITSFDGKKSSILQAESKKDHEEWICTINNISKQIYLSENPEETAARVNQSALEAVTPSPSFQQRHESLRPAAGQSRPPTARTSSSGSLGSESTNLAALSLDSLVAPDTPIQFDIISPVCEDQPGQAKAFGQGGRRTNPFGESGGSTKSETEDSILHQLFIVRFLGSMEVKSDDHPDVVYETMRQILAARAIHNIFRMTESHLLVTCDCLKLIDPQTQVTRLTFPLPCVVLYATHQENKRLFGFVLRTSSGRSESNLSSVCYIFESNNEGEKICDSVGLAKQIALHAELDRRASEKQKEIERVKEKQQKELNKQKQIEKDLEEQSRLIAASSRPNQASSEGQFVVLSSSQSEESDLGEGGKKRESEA
UniProt O15085: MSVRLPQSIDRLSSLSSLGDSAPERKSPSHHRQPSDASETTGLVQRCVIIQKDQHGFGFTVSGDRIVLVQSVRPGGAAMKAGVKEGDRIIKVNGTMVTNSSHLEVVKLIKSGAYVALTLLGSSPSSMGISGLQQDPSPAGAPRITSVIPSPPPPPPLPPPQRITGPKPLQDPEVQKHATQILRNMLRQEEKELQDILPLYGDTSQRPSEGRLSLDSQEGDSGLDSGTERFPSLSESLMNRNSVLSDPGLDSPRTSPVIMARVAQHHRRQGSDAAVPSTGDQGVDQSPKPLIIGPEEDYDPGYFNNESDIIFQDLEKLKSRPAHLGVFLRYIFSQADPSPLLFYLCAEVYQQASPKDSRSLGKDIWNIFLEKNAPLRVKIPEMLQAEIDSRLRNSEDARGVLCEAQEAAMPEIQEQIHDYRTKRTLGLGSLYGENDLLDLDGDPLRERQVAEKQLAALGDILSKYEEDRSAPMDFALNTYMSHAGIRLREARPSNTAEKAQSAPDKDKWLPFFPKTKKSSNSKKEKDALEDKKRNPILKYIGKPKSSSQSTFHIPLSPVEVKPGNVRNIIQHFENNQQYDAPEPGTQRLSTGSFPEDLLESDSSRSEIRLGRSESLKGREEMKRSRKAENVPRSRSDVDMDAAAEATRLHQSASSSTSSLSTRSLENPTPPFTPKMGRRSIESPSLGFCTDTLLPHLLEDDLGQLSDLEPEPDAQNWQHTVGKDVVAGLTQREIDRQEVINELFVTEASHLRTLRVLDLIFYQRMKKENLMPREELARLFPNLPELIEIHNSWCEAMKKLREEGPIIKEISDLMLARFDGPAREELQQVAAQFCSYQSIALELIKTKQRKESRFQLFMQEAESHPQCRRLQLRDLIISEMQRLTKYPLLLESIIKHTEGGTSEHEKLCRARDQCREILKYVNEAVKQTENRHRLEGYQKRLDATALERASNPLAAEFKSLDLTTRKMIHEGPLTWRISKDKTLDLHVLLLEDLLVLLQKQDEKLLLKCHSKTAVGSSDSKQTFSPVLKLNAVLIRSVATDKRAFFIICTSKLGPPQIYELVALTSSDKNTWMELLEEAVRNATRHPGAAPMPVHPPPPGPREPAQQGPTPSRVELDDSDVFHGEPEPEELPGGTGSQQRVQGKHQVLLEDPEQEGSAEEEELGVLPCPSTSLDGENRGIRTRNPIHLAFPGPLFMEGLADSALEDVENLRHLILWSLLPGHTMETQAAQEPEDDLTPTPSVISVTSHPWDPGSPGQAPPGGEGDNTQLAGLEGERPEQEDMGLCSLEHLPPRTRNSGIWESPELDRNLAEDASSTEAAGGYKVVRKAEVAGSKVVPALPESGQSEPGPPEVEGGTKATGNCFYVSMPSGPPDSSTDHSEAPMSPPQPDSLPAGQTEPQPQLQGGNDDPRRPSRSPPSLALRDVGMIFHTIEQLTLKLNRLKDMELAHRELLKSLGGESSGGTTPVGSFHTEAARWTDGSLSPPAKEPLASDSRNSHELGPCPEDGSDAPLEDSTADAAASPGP
UniProt Q9NP61: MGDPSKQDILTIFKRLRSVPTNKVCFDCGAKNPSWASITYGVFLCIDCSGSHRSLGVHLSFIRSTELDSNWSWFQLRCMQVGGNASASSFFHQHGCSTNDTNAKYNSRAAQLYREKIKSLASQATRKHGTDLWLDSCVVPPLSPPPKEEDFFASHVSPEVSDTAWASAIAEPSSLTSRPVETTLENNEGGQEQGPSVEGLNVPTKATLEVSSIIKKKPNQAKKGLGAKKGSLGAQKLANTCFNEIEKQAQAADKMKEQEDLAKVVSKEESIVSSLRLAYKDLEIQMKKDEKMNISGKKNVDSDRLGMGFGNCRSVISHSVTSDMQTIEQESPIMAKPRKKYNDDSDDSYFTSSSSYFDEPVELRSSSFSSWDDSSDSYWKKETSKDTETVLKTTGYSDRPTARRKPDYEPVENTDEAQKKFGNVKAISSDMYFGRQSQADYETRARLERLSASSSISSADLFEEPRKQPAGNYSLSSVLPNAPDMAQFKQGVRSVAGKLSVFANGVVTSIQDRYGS
UniProt Q9NRW3: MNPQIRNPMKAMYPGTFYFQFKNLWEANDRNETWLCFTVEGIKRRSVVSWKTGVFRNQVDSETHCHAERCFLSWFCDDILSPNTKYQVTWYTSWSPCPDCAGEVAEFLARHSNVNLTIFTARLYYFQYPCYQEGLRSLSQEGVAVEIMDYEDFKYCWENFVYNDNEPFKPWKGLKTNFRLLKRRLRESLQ
UniProt P02654: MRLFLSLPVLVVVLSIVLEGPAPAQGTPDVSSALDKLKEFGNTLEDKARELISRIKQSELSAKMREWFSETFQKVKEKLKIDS
UniProt P53367: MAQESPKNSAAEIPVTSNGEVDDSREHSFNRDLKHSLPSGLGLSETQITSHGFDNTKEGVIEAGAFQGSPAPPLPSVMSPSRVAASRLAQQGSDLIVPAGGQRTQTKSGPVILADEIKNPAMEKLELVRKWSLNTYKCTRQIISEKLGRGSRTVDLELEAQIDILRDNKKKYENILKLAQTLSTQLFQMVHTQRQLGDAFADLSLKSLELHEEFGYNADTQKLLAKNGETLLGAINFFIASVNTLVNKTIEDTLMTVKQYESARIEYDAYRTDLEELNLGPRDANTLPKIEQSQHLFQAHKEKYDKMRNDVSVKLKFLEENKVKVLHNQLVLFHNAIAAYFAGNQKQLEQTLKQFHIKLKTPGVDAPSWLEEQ

Compound in one experiment: Cc1cccc(CC(=O)N2CCc3c2ccc(-c2cn(C)c4ncnc(N)c24)c3F)n1
In words: log2 fold change, soluble protein after heating vs DMSO (PISA); higher = thermal stabilisation; K562 lysate, 10 uM; active = over 0.2 and 3.5 SD of the protein, either way, in both replicates (recomputed). The essentials: (§1)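 A 30 min treatment with 10 μM compound was applied to crude K562 extract at 1 mg/mL protein in PBS pH 7.4 with 1 mM MgCl2. Heating for 3 min spanned 48°C-58°C, after which aliquots were pooled, adjusted to 0.5% NP-40 at 4°C and spun at 21,000xg for 90 min. TMTpro 16plex LC-MS/MS of the supernatant, with channel sums equalised, gave values recorded as log-two fold change in thermal stability against solvent controls, from duplicates.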
As to ASAP1 isoform 2 (UniProt Q9ULH1), the log2 fold change was inactive: 0.058.

Consider APOBEC3G (UniProt Q9HC16), for which the log2 fold change was inactive: -0.034.

On to AP5Z1 (UniProt O43299), for which the log2 fold change was inactive: 0.186.

For the target ARIH1 (UniProt Q9Y4X5), the log2 fold change was inactive: -0.063.

For the target ARHGEF10 (UniProt O15013), the log2 fold change is inactive: 0.036.

For APOOL (UniProt Q6UXV4), the log2 fold change was inactive: 0.032.

For the target ARFGEF2 (UniProt Q9Y6D5), the log2 fold change is inactive: 0.063.

As to ARRDC1 (UniProt Q8N5I2), the log2 fold change was inactive: 0.122.

Regarding ARID2 (UniProt Q68CP9), the log2 fold change was inactive: 0.13.

In the case of ARV1 (UniProt Q9H2C2), the log2 fold change is inactive: 0.029.

With APTX (UniProt Q7Z2E3), the log2 fold change was inactive: -0.015.

For the target APIP (UniProt Q96GX9), the log2 fold change is inactive: 0.126.

As for ARMCX3 (UniProt Q9UH62), the log2 fold change is inactive: 0.032.

With ARSA (UniProt P15289), the log2 fold change was inactive: -0.041.

Turning to ARHGAP18 (UniProt Q8N392), the log2 fold change is inactive: 0.031.

Turning to APLP2 (UniProt Q06481), the log2 fold change was inactive: -0.033.

Take AP4S1 (UniProt Q9Y587): the log2 fold change is inactive: 0.004.

On to ARL6IP1 (UniProt Q15041), for which the log2 fold change is inactive: -0.001.

On to ARHGAP5 (UniProt Q13017), for which the log2 fold change is inactive: 0.023.

With APPL1 (UniProt Q9UKG1), the log2 fold change was inactive: -0.036.

Regarding ARID1B isoform 3 (UniProt Q8NFD5), the log2 fold change was inactive: 0.015.

On to ARHGEF11 isoform 2 (UniProt O15085), for which the log2 fold change is inactive: 0.038.

Turning to ARFGEF1 (UniProt Q9Y6D6), the log2 fold change is inactive: 0.039.

For ARID4B (UniProt Q4LE39), the log2 fold change is inactive: 0.01.

Turning to ARAF (UniProt P10398), the log2 fold change is inactive: -0.031.

Turning to APAF1 (UniProt O14727), the log2 fold change was inactive: 0.061.

Consider ARFGAP3 (UniProt Q9NP61), for which the log2 fold change is inactive: -0.011.

On to ARHGAP21 (UniProt Q5T5U3), for which the log2 fold change was inactive: 0.053.

As for APMAP (UniProt Q9HDC9), the log2 fold change was inactive: -0.05.

Take AP5M1 (UniProt Q9H0R1): the log2 fold change was inactive: 0.05.

Turning to APOBEC3C (UniProt Q9NRW3), the log2 fold change was inactive: 0.153.

With APOC1 (UniProt P02654), the log2 fold change was inactive: -0.103.

On to ARFIP1 (UniProt P53367), for which the log2 fold change was inactive: 0.051.

Compound in a further experiment: Cc1cn(-c2cc(NC(=O)c3ccc(C)c(Nc4nccc(-c5cccnc5)n4)c3)cc(C(F)(F)F)c2)cn1 [nilotinib]
The description is as above. The essentials: as §1
In the case of ASAP1 isoform 2 (UniProt Q9ULH1), the log2 fold change was inactive: 0.041.

For the target APOBEC3G (UniProt Q9HC16), the log2 fold change was inactive: -0.08.

On to AP5Z1 (UniProt O43299), for which the log2 fold change was inactive: -0.029.

Take ARIH1 (UniProt Q9Y4X5): the log2 fold change is inactive: 0.037.

For ARHGEF10 (UniProt O15013), the log2 fold change is inactive: 0.139.

On to APOOL (UniProt Q6UXV4), for which the log2 fold change was inactive: 0.007.

Consider ARFGEF2 (UniProt Q9Y6D5), for which the log2 fold change was inactive: 0.004.

For ARRDC1 (UniProt Q8N5I2), the log2 fold change was inactive: 0.251.

As for ARID2 (UniProt Q68CP9), the log2 fold change was inactive: 0.06.

Take ARV1 (UniProt Q9H2C2): the log2 fold change was inactive: -0.181.

In the case of APTX (UniProt Q7Z2E3), the log2 fold change was inactive: -0.025.

Take APIP (UniProt Q96GX9): the log2 fold change was inactive: 0.003.

In the case of ARMCX3 (UniProt Q9UH62), the log2 fold change was inactive: 0.023.

ARSA (UniProt P15289): the log2 fold change was inactive: 0.012.

As for ARHGAP18 (UniProt Q8N392), the log2 fold change was inactive: 0.019.

Turning to APLP2 (UniProt Q06481), the log2 fold change was inactive: 0.005.

As for AP4S1 (UniProt Q9Y587), the log2 fold change is inactive: 0.182.

ARL6IP1 (UniProt Q15041): the log2 fold change was inactive: 0.053.

As to ARHGAP5 (UniProt Q13017), the log2 fold change is inactive: 0.01.

In the case of APPL1 (UniProt Q9UKG1), the log2 fold change was inactive: -0.008.

Turning to ARID1B isoform 3 (UniProt Q8NFD5), the log2 fold change is inactive: 0.001.

Regarding ARHGEF11 isoform 2 (UniProt O15085), the log2 fold change was inactive: 0.01.

For the target ARFGEF1 (UniProt Q9Y6D6), the log2 fold change was inactive: -0.018.

Regarding ARID4B (UniProt Q4LE39), the log2 fold change was inactive: 0.059.

As for ARAF (UniProt P10398), the log2 fold change is inactive: -0.005.

Consider APAF1 (UniProt O14727), for which the log2 fold change was inactive: -0.013.

Turning to ARFGAP3 (UniProt Q9NP61), the log2 fold change was inactive: 0.032.

For ARHGAP21 (UniProt Q5T5U3), the log2 fold change is inactive: -0.017.

Take APMAP (UniProt Q9HDC9): the log2 fold change was inactive: -0.007.

For AP5M1 (UniProt Q9H0R1), the log2 fold change is inactive: -0.04.

Take APOBEC3C (UniProt Q9NRW3): the log2 fold change was inactive: 0.082.

With APOC1 (UniProt P02654), the log2 fold change is inactive: 0.008.

As for ARFIP1 (UniProt P53367), the log2 fold change was inactive: -0.057.

Compound in the next experiment: Cc1nc(Nc2n[nH]c3c2CN(C(=O)N[C@H](CN(C)C)c2ccccc2)C3(C)C)c2sccc2n1
The description is as above. The essentials: as §1
For ASAP1 isoform 2 (UniProt Q9ULH1), the log2 fold change is inactive: 0.04.

For the target APOBEC3G (UniProt Q9HC16), the log2 fold change is inactive: -0.043.

Regarding AP5Z1 (UniProt O43299), the log2 fold change was inactive: 0.267.

Take ARIH1 (UniProt Q9Y4X5): the log2 fold change is inactive: 0.03.

Take ARHGEF10 (UniProt O15013): the log2 fold change was inactive: -0.112.

Consider APOOL (UniProt Q6UXV4), for which the log2 fold change is inactive: -0.01.

With ARFGEF2 (UniProt Q9Y6D5), the log2 fold change was inactive: 0.012.

Take ARRDC1 (UniProt Q8N5I2): the log2 fold change is inactive: -0.076.

As for ARID2 (UniProt Q68CP9), the log2 fold change is inactive: 0.009.

For the target ARV1 (UniProt Q9H2C2), the log2 fold change was inactive: 0.079.

As to APTX (UniProt Q7Z2E3), the log2 fold change is inactive: -0.049.

Take APIP (UniProt Q96GX9): the log2 fold change is inactive: -0.002.

As to ARMCX3 (UniProt Q9UH62), the log2 fold change was inactive: -0.028.

For the target ARSA (UniProt P15289), the log2 fold change is inactive: -0.007.

As for ARHGAP18 (UniProt Q8N392), the log2 fold change was inactive: -0.025.

In the case of APLP2 (UniProt Q06481), the log2 fold change was inactive: -0.007.

On to AP4S1 (UniProt Q9Y587), for which the log2 fold change was inactive: -0.031.

With ARL6IP1 (UniProt Q15041), the log2 fold change is inactive: 0.057.

ARHGAP5 (UniProt Q13017): the log2 fold change is inactive: -0.056.

In the case of APPL1 (UniProt Q9UKG1), the log2 fold change is inactive: 0.05.

As to ARID1B isoform 3 (UniProt Q8NFD5), the log2 fold change was inactive: -0.015.

For ARHGEF11 isoform 2 (UniProt O15085), the log2 fold change is inactive: -0.015.

On to ARFGEF1 (UniProt Q9Y6D6), for which the log2 fold change is inactive: 0.009.

For the target ARID4B (UniProt Q4LE39), the log2 fold change was inactive: -0.055.

In the case of ARAF (UniProt P10398), the log2 fold change is inactive: 0.018.

On to APAF1 (UniProt O14727), for which the log2 fold change was inactive: 0.116.

Regarding ARFGAP3 (UniProt Q9NP61), the log2 fold change was inactive: -0.015.

On to ARHGAP21 (UniProt Q5T5U3), for which the log2 fold change was inactive: -0.014.

For the target APMAP (UniProt Q9HDC9), the log2 fold change was inactive: 0.008.

Turning to AP5M1 (UniProt Q9H0R1), the log2 fold change was inactive: 0.007.

Take APOBEC3C (UniProt Q9NRW3): the log2 fold change is inactive: -0.014.

Regarding APOC1 (UniProt P02654), the log2 fold change is inactive: 0.034.

As to ARFIP1 (UniProt P53367), the log2 fold change was inactive: 0.038.
